Test results from article PMC9948308, “DnaK and DnaJ proteins from Hsp70/40 family are involved in Rubisco biosynthesis in Synechocystis sp. PCC6803 and sustain the enzyme assembly in a heterologous system” (BMC Plant Biology, 2023).
These are yes or no findings as the source states them, for the method shown. Binding calls can cover weak binding; strength is not graded here.

Protein sequences, listed by entry. Tags and fused reporters are not part of them. Lines headed by an entry give the natural chain unless they say otherwise; changes in a name come on top.
UniProt P22358: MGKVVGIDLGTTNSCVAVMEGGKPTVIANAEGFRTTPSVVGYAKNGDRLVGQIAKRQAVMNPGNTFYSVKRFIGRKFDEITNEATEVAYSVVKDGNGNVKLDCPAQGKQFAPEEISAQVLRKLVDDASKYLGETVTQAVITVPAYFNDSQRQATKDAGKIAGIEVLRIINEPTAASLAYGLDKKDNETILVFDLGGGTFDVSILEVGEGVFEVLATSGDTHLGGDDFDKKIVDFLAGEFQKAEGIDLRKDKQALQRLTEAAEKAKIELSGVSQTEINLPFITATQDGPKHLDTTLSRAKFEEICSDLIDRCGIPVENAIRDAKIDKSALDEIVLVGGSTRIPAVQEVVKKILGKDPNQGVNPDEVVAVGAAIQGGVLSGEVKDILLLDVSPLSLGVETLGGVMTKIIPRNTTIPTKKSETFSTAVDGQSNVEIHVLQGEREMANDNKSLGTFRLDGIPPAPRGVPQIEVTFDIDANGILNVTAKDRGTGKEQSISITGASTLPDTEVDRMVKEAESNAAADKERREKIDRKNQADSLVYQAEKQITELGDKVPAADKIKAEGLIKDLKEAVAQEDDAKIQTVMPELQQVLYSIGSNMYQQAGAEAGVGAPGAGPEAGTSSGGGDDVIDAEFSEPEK
UniProt P54205: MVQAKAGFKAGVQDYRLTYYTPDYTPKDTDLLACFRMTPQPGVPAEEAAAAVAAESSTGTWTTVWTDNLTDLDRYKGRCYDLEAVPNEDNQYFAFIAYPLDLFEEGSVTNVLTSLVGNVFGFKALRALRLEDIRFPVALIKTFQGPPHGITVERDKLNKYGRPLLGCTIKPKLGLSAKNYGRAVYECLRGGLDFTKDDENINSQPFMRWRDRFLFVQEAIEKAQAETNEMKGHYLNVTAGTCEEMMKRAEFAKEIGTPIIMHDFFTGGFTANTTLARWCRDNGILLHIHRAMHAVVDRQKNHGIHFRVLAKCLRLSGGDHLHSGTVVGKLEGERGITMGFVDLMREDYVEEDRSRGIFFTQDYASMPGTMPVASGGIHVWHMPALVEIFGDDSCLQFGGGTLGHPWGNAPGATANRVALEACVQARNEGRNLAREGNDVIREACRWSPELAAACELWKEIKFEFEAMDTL
UniProt P74157: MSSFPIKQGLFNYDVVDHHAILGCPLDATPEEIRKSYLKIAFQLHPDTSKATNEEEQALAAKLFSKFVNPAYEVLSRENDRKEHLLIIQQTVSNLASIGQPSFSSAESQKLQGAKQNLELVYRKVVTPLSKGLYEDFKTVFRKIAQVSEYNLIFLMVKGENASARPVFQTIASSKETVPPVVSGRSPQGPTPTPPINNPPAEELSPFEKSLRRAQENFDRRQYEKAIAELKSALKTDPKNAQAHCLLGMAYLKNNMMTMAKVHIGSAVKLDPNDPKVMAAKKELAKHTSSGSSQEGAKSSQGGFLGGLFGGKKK

What was measured:
[1] = target: DnaK2 from Synechocystis sp. PCC6803, His-tagged (Synechocystis sp. PCC6803) (UniProt P22358); experiment: pull-down; His-tagged DnaK2 or His-tagged DnaJ Sll1384 as bait on nickel resin (cOmplete His-Tag Purification Resin); 50 µg of each protein in 150 µl, 30 min; eluted with 400 mM imidazole; dot blot; both purified
[2] = target: RbcL, endogenous in Synechocystis sp. PCC 6803 (Synechocystis sp. PCC 6803 (endogenous in Synechocystis sp. PCC 6803)) (UniProt P54205); experiment: native gel or EMSA; soluble fraction of Synechocystis sp. PCC 6803 (wild type, Δraf1 and Δsll1384 strains); native PAGE, western blots with anti-RbcL, anti-DnaK, anti-DnaJ, anti-Raf1

Substance | binding [1] | binding [2]
DnaJ Sll1384 without a His-tag (from UniProt P74157) | binds | 
DnaJ Sll1384, endogenous in Synechocystis sp. PCC 6803 (from UniProt P74157) |  | binds
